Measurements published in patent US5998362A (priority 1997, dated 1999).
The same purity stands for every peptide and may come from a single statement.

Assay: general procedure: Boc solid-phase peptide synthesis; Boc-Leu-PAM resin; DCC and HOBT
Conditions: conjugation step, 214 nm

Row | Substance | final HPLC purity [% pure]
1 | N-2(R)-2,3-dihydroxypropionyl-Ser-Ser-Ser-Chg-Gln-Ser-Leu-Dox | 99
2 | N-[2-{2-(2-methoxyethoxy)ethoxy}acetyl]-Ser-Ser-Ser-Chg-Gln-Ser-Leu-Dox | 99
3 | N-2(S)-2,3-dihydroxypropionyl-Ser-Ser-Ser-Chg-Gln-Ser-Leu-Dox | 99
4 | 2-HO-Ac-Ser-Ser-Ser-Chg-Ser-Leu-Dox | 99
